Binding screen against folded nucleic acids

Calls as published in the ROBIN set (doi:10.1002/anie.202211358).

Targets, with sequences 5′ to 3′:
TPP: TPP riboswitch RNA three-way junction, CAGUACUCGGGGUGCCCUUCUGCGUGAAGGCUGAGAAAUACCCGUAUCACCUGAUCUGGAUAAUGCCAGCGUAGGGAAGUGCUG. About 24,000 compounds screened, about 160 hits.
PreQ1: PreQ1 riboswitch RNA pseudoknot, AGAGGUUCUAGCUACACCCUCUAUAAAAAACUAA. From B. subtilis. About 24,000 compounds screened, about 170 hits.
SAM-II: SAM-II riboswitch RNA pseudoknot, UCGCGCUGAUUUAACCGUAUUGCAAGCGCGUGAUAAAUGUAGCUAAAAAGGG. About 21,000 compounds screened, about 200 hits.

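Compounds were printed on reactive glass slides in duplicate spots, a dye-labelled oligonucleotide was laid over them, and the fluorescence left after washing was read. The data file lists only calls. An earlier report of the laboratory on the PreQ1, TPP and SAM-II riboswitches (doi:10.1038/s41467-019-09493-3) used 1 µM RNA for 2 h and required a mean Z-score above 3 (spot signal-to-noise against the whole library), a score well above that on a control array, and duplicate spots agreeing (coefficient of variation under 100); it then also set aside compounds that hit other targets, which this list keeps. The cut-offs behind this list may differ. The calls come from the array alone, and fixing a compound to the slide can hide its binding.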
“yes” means called a hit, “no” means screened and not called a hit.
The compounds are a random part of those screened.
A dash means that no call is listed here.

| structure | TPP | PreQ1 | SAM-II |
|---|---|---|---|
| `CCCNc1cc(C)nc2c(C)c(-c3ccc(C)cc3)nn12` | no | no | - |
| `O=C(NCc1cn2c(n1)SCC2)c1cn(CC2CCCNC2)nn1` (stereo not shown) | no | no | no |
| `COc1ccc(OCc2nc(C#N)c(NCCCn3ccnc3)o2)cc1` | no | no | no |
| `Cc1ccc(NC(=O)C2(c3ccc4c(c3)OC(F)(F)O4)CC2)nc1-c1cccc(C(=O)O)c1` | no | no | no |
| `CCNC(=O)[C@@H]1C[C@H](N)CN1Cc1cnn(-c2ccc(OC)cc2)c1C` | no | no | no |
| `N#CC1=C(N)Oc2cc(O)ccc2C1c1ccncc1` (stereo not shown) | no | no | no |
| `O=c1c(-c2ccc(Cl)cc2)coc2cc(OCCN3CCN(CCO)CC3)ccc12` | no | no | no |
| `CN[C@H]1[C@@H](O)[C@@H]2O[C@@H]3O[C@H](C)CC(=O)[C@]3(O)O[C@@H]2[C@@H](NC)[C@H]1O` | no | no | no |
| `CCc1ccc(-c2csc(Nc3ccc(S(N)(=O)=O)cc3)n2)cc1` | no | no | no |
| `O=C(C[n+]1c2n(c3ccccc31)CC(O)CS2)c1ccccc1.[Br-]` (stereo not shown) | no | no | no |
| `Cc1cccc(N2CCN(CC(O)c3ccc4c(c3)CCN4)CC2)c1C` (stereo not shown) | no | no | no |
| `CCOC(=O)C1=C(C)OC(N)=C(C#N)C12C(=O)Nc1ccc(Cl)cc12` (stereo not shown) | no | no | no |
| `Cc1nc(NCCO)c2c3c(sc2n1)CCCC3` | no | no | no |
| `Cc1cc(N)n(-c2ccc(S(=O)(=O)O)cc2)n1` | no | no | no |
| `NCCCN1C(=O)CC[C@H]2CN(C(=O)c3coc4ccccc34)CC[C@H]21` | no | no | no |
| `Cc1nc2c(c(NCCSc3nncn3C)n1)CCNCC2` | no | no | no |
| `N#Cc1ccc(Oc2ccc3c(c2)COB3O)cc1` | no | no | no |
| `CCOC(=O)C1=C(N)Oc2ccc(Br)cc2C1C(C#N)C(=O)OCC` (stereo not shown) | no | no | no |
| `Cc1nc2ccccc2c(N)c1-c1cc(C)c2c(C)nc3ccccc3c2n1` | no | no | no |
| `CC(C)CN1CCC(NCc2ccccc2-n2ccnc2)CC1` | no | no | no |
| `Cc1ccc(C(=O)Nc2sc3c(c2C(=O)NCCO)CCC(C(C)(C)C)C3)cc1` (stereo not shown) | no | no | no |
| `Cn1nccc1CCC(=O)N1CC[C@@](C)(O)[C@@H](O)C1` | no | no | no |
| `CSCCC(O)C(=O)N(C)Cc1cccc2cnccc12` (stereo not shown) | no | no | no |
| `O=c1c2ccccc2nc2n1CCc1c-2[nH]c2ccccc12` | no | no | no |
| `CCc1cnc(C)nc1N1CCC(NCc2ccc3cc[nH]c3c2)CC1` | no | no | no |
| `CCNC(=O)[C@@H]1C[C@@H](N)CN1C(=O)c1ccccc1-n1cccn1` | no | no | no |
| `CC1CC(Nc2ccccc2)c2ccccc2N1C(=O)c1cccs1` (stereo not shown) | no | no | no |
| `Nc1cc(N)nc(SCC(=O)Nc2nc3c(s2)CCCC3)n1` | no | no | no |
| `O=c1cc(NCCCO)c2ccccc2o1` | no | no | no |
| `O=C(NC[C@H]1CCc2ccccc2O1)c1cnn2cc(CCO)cnc12` | no | no | no |
| `Cc1ccc2c(c1)C1(C(=O)N2)C(C#N)=C(N)N(c2ccc(F)c(Cl)c2)C2=C1C(=O)OC2` (stereo not shown) | no | no | no |
| `COc1ccc2[nH]c3c(c2c1)CN(c1cc(NCCO)nc(N)n1)CC3` | no | no | no |
| `CCc1csc(CNC(=O)c2ccc(N3CCNCC3)nc2)n1` | no | no | no |
| `CN(C)c1ccc(N2CC(=O)C(c3nc4ccccc4[nH]3)=C2N)cc1` | no | no | - |
| `Cc1ccccc1NC(CNS(=O)(=O)c1ccc(Cl)cc1)c1ccccc1` (stereo not shown) | no | no | - |
| `CC(C)C[C@H](CC(=O)O)C(=O)N[C@@H](Cc1c[nH]c2ccccc12)C(=O)N[C@@H](C)c1ccccc1` | no | no | no |
| `NCCc1nc(NCc2ccccc2-n2cncn2)c2ccccc2n1` | no | no | no |
| `COc1cccc(OCC(O)CN2CCN(Cc3ccc4c(c3)OCO4)CC2)c1.Cl.Cl` (stereo not shown) | no | no | no |
| `O=C(Nc1ccc(C(F)(F)F)cc1)N1CCCCCC1CO` (stereo not shown) | no | no | no |

Once more, the final 4:

| structure | TPP | PreQ1 | SAM-II |
|---|---|---|---|
| `CC(C)C[C@H](CC(=O)O)C(=O)N[C@@H](Cc1c[nH]c2ccccc12)C(=O)N[C@@H](C)c1ccccc1` | no | no | no |
| `NCCc1nc(NCc2ccccc2-n2cncn2)c2ccccc2n1` | no | no | no |
| `COc1cccc(OCC(O)CN2CCN(Cc3ccc4c(c3)OCO4)CC2)c1.Cl.Cl` (stereo not shown) | no | no | no |
| `O=C(Nc1ccc(C(F)(F)F)cc1)N1CCCCCC1CO` (stereo not shown) | no | no | no |